In the supplement of paper PMC10849652:
The other results are listed elsewhere or left out.

Protein sequences, listed by entry. Tags and fused reporters are not part of them. Lines headed by an entry give the natural chain unless they say otherwise; changes in a name come on top.
UniProt Q8TAF3: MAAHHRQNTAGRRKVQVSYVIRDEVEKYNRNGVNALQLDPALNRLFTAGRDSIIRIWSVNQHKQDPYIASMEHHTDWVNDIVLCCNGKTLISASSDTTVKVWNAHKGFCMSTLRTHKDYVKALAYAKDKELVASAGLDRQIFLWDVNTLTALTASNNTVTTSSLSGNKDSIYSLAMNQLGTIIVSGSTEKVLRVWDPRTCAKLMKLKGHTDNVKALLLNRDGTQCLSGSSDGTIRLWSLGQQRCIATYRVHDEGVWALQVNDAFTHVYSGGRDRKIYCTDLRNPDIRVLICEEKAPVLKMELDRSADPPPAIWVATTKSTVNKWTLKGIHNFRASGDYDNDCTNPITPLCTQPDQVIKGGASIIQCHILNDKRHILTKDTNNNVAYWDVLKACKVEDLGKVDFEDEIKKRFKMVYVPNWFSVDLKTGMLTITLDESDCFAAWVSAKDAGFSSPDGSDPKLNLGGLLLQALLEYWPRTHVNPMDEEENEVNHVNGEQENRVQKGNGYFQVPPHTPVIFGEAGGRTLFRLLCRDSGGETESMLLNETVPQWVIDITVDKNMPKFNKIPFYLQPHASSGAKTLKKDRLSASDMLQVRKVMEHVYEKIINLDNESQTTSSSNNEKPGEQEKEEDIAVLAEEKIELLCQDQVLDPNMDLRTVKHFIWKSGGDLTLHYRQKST
UniProt Q6RFH5: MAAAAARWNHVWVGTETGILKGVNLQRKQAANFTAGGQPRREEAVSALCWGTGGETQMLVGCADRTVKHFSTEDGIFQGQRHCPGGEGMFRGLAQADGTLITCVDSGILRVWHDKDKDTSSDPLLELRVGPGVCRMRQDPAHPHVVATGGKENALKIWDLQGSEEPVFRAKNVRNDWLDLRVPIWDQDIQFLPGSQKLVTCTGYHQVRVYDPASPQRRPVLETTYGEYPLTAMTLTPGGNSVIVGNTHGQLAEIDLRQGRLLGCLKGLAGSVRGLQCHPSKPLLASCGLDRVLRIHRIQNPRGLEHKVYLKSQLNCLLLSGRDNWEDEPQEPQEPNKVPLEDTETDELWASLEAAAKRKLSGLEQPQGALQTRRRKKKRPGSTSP
UniProt Q8NI36: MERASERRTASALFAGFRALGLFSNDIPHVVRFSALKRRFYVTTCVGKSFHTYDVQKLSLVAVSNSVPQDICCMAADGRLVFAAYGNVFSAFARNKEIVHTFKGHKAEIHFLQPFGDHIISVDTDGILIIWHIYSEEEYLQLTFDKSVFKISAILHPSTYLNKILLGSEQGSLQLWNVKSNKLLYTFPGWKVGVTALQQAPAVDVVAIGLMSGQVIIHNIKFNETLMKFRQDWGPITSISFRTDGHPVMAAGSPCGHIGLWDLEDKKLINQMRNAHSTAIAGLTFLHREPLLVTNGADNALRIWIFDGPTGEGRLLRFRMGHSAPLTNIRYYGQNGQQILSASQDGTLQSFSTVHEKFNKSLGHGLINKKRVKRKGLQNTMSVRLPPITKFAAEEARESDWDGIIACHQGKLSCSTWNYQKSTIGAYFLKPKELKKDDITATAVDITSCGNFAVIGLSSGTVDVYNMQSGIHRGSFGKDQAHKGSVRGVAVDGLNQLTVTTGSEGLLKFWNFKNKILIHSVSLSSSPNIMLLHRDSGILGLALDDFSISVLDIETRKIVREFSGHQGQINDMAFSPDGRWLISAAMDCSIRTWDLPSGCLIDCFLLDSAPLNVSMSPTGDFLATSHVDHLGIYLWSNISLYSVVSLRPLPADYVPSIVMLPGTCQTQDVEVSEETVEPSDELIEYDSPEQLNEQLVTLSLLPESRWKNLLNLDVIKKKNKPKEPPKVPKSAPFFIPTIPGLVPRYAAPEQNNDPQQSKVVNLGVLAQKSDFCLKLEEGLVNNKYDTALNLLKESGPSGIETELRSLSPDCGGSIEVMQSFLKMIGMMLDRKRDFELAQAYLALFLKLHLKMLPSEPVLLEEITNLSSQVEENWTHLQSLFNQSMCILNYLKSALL
UniProt Q14119: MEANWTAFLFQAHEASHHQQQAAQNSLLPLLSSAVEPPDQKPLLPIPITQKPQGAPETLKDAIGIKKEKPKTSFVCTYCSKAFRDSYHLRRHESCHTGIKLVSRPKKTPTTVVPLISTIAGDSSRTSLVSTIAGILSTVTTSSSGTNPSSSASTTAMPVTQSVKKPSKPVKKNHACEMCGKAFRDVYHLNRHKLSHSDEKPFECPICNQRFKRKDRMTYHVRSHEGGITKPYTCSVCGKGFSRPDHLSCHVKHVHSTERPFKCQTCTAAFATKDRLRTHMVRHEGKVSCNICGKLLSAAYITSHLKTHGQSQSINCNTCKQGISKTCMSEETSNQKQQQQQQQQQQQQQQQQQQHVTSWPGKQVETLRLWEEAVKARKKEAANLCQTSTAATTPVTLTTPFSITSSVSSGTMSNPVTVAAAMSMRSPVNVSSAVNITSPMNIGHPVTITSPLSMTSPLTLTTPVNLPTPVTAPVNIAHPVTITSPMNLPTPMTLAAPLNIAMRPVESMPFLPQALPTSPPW
UniProt Q9Y4P8: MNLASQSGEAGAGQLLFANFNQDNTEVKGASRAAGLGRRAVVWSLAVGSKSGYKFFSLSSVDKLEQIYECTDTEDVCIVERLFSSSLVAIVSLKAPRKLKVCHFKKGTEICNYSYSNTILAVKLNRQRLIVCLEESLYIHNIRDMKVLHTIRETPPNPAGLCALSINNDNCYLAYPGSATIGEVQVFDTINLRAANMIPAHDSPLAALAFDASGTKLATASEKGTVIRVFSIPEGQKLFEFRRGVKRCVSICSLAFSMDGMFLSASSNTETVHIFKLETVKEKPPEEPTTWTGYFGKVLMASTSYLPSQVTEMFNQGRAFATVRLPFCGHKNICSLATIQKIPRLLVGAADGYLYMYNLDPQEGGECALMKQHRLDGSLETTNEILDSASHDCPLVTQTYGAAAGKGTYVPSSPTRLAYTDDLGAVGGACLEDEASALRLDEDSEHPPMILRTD
UniProt O00401, whole entry, looked up: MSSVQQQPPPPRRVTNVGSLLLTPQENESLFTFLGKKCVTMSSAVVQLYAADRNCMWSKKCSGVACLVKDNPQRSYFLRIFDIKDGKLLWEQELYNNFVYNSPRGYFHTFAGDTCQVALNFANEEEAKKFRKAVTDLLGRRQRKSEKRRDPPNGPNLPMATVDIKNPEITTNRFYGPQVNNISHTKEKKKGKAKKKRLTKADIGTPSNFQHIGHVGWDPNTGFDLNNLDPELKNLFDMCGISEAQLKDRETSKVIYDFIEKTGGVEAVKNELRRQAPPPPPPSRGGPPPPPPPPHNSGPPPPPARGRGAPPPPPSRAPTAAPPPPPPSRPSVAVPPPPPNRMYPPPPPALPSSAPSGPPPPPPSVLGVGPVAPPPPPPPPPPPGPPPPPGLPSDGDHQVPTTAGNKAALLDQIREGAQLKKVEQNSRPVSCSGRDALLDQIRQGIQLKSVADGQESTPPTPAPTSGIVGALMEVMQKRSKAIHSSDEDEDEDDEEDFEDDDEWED
UniProt O95785: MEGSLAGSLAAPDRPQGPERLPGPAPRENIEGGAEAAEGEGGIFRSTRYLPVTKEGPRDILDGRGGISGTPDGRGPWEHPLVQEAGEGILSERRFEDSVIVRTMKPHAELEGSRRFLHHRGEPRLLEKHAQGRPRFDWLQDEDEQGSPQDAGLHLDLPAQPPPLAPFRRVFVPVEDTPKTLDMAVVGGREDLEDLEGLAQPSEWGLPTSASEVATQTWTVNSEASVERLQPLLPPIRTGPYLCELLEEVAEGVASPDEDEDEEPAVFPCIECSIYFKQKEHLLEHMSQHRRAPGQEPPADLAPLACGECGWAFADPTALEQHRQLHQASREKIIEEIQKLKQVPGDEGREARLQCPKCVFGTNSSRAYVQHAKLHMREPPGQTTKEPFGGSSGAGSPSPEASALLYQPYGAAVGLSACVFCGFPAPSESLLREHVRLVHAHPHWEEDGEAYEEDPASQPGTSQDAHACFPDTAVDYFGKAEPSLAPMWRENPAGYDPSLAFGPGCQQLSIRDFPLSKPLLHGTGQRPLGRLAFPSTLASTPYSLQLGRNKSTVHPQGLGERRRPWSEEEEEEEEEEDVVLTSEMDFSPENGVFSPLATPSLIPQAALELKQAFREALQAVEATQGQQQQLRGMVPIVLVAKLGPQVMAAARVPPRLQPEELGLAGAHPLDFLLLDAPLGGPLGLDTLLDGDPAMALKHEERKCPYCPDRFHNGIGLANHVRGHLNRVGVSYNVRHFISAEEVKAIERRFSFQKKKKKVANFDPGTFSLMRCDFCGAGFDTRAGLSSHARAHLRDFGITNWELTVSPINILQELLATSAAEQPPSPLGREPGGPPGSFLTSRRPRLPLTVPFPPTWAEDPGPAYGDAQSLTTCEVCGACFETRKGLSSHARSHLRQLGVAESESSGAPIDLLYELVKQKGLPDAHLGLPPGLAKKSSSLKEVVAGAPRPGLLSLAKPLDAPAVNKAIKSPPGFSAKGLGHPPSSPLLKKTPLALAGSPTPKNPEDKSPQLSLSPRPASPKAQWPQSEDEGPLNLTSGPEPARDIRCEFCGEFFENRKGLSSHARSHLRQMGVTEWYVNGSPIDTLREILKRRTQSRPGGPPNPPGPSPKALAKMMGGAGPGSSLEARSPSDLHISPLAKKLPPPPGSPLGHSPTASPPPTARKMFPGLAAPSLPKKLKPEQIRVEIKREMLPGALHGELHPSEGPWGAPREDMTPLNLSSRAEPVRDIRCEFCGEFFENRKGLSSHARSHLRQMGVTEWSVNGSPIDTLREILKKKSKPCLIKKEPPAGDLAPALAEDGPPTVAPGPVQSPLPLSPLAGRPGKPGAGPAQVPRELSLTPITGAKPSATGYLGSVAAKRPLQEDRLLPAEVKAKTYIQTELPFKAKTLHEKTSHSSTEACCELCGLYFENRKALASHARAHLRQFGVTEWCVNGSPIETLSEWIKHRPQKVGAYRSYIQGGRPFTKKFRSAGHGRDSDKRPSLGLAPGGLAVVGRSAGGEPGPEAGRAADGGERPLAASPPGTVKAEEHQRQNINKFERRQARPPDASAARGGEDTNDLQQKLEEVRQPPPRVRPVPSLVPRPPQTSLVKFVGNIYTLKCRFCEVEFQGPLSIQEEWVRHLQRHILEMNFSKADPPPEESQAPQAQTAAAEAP
UniProt P23381: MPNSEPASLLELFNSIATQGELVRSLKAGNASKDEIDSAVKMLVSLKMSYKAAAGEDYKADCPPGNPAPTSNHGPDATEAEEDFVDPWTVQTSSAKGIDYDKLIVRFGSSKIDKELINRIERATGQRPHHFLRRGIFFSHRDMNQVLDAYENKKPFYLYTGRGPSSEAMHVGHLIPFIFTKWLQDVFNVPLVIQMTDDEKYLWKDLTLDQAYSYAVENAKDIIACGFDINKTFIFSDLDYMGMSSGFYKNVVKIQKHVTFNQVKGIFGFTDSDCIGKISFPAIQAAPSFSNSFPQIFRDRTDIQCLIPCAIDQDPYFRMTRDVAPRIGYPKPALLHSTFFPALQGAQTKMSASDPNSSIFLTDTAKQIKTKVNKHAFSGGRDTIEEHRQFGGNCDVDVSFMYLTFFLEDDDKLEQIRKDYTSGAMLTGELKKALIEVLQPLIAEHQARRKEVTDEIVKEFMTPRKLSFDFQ
UniProt O75083: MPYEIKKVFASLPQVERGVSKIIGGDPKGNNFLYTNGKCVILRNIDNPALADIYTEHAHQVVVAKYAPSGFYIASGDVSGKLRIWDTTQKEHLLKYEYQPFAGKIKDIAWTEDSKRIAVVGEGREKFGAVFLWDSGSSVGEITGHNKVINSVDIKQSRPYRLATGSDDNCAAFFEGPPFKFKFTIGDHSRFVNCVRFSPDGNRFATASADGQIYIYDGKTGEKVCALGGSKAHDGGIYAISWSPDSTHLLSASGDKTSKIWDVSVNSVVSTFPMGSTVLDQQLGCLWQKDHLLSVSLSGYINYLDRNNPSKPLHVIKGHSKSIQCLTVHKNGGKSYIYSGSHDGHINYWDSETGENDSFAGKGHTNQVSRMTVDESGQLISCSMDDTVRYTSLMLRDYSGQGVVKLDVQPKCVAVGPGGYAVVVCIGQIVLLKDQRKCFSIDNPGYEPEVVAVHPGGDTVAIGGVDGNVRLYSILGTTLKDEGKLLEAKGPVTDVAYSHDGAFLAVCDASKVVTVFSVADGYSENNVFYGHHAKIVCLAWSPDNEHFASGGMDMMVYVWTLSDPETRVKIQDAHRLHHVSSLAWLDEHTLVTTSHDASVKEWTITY

Assays:
Test in all cases: log2 fold change, soluble protein after heating vs DMSO (PISA); higher = thermal stabilisation; K562 cells, 10 uM, 30 min; active = over 0.2 and 3.5 SD of the protein, either way, in both replicates (recomputed)
[1] = compound: CC1=C(C=C(C=C1)NC(=O)C2=CC(=CC=C2)C(C)(C)C#N)NC3=CC4=C(C=C3)N=CN(C4=O)C
Summary of the method: (§1)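 K562 cells (2×10^6 cells/mL) were treated with 10 μM compound for 30 min, and aliquots were heated for 3 min over 48°C-58°C. Pooled aliquots were extracted in PBS with 0.5% NP-40 at 4°C, and the supernatant after 21,000xg for 90 min was measured by TMTpro 16plex LC-MS/MS with channel sums equalised. Reported thermal stability, relative to control samples and from duplicates, is a log2 fold change.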

[2] = compound: CC1=C(C=C(C=C1)NC(=O)C2=CC(=CC=C2)N(C)C)NC(=O)C3=CC=C(C=C3)O
Summary of the method: as §1

[3] = compound: CC1=CC=C(C=C1)SC2=C3C=C(SC3=CN=C2)C(=O)N
Summary of the method: as §1

[4] = compound: CC1=NC(=CC=C1)C2=C(N=C(N2)C(C)(C)C)C3=CC4=NC=CN=C4C=C3
Summary of the method: as §1

Nexturastat A = compound: CCCCN(Cc1ccc(C(=O)NO)cc1)C(=O)Nc1ccccc1 [Nexturastat A]
Summary of the method: as §1

vemurafenib = compound: CCCS(=O)(=O)Nc1ccc(F)c(C(=O)c2c[nH]c3ncc(-c4ccc(Cl)cc4)cc23)c1F [vemurafenib]
Summary of the method: as §1

[5] = compound: CCCS(=O)(=O)Nc1ccc(F)c(C(=O)c2c[nH]c3ncc(Cl)cc23)c1F
Summary of the method: as §1

[6] = compound: CCCc1cc(C)[nH]c(=O)c1CNC(=O)c1cc(-c2ccnc(N3CCN(C)CC3)c2)cc2c1cnn2C(C)C
Summary of the method: as §1

givinostat = compound: CCN(CC)Cc1ccc2cc(COC(=O)Nc3ccc(C(=O)NO)cc3)ccc2c1 [givinostat]
Summary of the method: as §1

barasertib = compound: CCN(CCCOc1ccc2c(Nc3cc(CC(=O)Nc4cccc(F)c4)[nH]n3)ncnc2c1)CCOP(=O)(O)O [barasertib]
Summary of the method: as §1

[7] = compound: CC[C@@H]1C(=O)N(C)c2cnc(Nc3ccc(C(=O)NC4CCN(C)CC4)cc3OC)nc2N1C1CCCC1
Summary of the method: as §1

volasertib = compound: CC[C@@H]1C(=O)N(C)c2cnc(Nc3ccc(C(=O)N[C@H]4CC[C@H](N5CCN(CC6CC6)CC5)CC4)cc3OC)nc2N1C(C)C [volasertib]
Summary of the method: as §1

[8] = compound: CC[C@H](C)N1C=C(C2=C(C=C(C=C21)C3=CN=C(C=C3)N4CCNCC4)C(=O)NCC5=C(C=C(NC5=O)C)C)C
Summary of the method: as §1

epoxomicin = compound: CC[C@H](C)[C@@H](C(=O)N[C@@H]([C@@H](C)O)C(=O)N[C@@H](CC(C)C)C(=O)[C@]1(CO1)C)NC(=O)[C@H]([C@@H](C)CC)N(C)C(=O)C [epoxomicin]
Summary of the method: as §1

[9] = compound: CCn1c(C(=O)N(C2CC2)C2CC2)cc2c3c(ncn3C)c(Nc3cc(C)n(C)n3)nc21
Summary of the method: as §1

[10] = compound: CCn1cc(-c2ccnc3[nH]c(-c4cccc(CN(C)C)c4)cc23)c(-c2ccc(NC(=O)N(C)C)cc2)n1
Summary of the method: as §1

[11] = compound: CN(C)CC(=O)Nc1ccc2[nH]c(=O)c3ccccc3c2c1
Summary of the method: as §1

rosiglitazone = compound: CN(CCOC1=CC=C(C=C1)C[C@H]2C(=O)NC(=O)S2)C3=CC=CC=N3 (racemic) [rosiglitazone]
Summary of the method: as §1

[12] = compound: CN1C2=C(C3=C1C(=O)N(N=C3)CC4=CC(=CC=C4)N)SC(=C2)S(=O)C
Summary of the method: as §1

[13] = compound: CN1CCC(CNc2ccc3ncc(-c4cccc(OC(F)(F)F)c4)n3n2)CC1
Summary of the method: as §1

Measured: log2 fold change

VPS35 (UniProt Q96QK1)
inactive: [1] 0.003 | [2] 0.009 | [3] 0.086 | [4] 0.068 | Nexturastat A -0.107 | vemurafenib 0.012 | [5] 0.028 | [6] -0.017 | givinostat -0.024 | barasertib 0.024 | [7] -0.037 | volasertib -0.118 | [8] 0.037 | epoxomicin 0.04 | [9] -0.007 | [10] -0.09 | [11] -0.009 | rosiglitazone 0.028 | [12] -0.062 | [13] -0.16

WRAP73 (UniProt Q9P2S5)
inactive: [1] 0.016 | [2] -0.003 | [3] 0.007 | [4] -0.043 | Nexturastat A 0.037 | vemurafenib -0.018 | [5] -0.017 | [6] 0.001 | givinostat 0.029 | barasertib -0.134 | [7] 0.052 | volasertib -0.021 | [8] -0.007 | epoxomicin -0.07 | [9] -0.02 | [10] -0.028 | [11] -0.096 | rosiglitazone 0.034 | [12] -0.051 | [13] -0.034

WDR48 (UniProt Q8TAF3)
inactive: [1] 0.026 | [2] 0.009 | [3] 0.005 | [4] 0.009 | Nexturastat A -0.018 | vemurafenib -0.025 | [5] -0.004 | [6] -0.057 | givinostat -0.069 | barasertib -0.003 | [7] 0.024 | volasertib 0.028 | [8] -0.015 | epoxomicin -0.025 | [9] 0.003 | [10] 0.002 | [11] 0.006 | rosiglitazone -0.015 | [12] -0.039 | [13] 0.021

WDR74 (UniProt Q6RFH5)
inactive: [1] -0.041 | [2] -0.04 | [3] -0.067 | [4] -0.099 | Nexturastat A 0.195 | vemurafenib -0.061 | [5] -0.029 | [6] 0.005 | givinostat 0.032 | barasertib -0.098 | [7] 0.134 | volasertib 0.201 | [8] -0.041 | epoxomicin -0.121 | [9] 0.016 | [10] 0.062 | [11] -0.115 | rosiglitazone -0.079 | [12] 0.087 | [13] 0.144

VIM (UniProt P08670)
inactive: [1] -0.036 | [2] -0.027 | [3] 0.013 | [4] -0.263 | Nexturastat A 0.178 | vemurafenib -0.063 | [5] -0.031 | [6] 0.096 | givinostat 0.088 | barasertib -0.043 | [7] 0.198 | volasertib 0.102 | [8] -0.031 | epoxomicin -0.145 | [9] 0.102 | [10] 0.457 | [11] -0.151 | rosiglitazone -0.099 | [12] 0.423 | [13] 0.242

WDR36 (UniProt Q8NI36)
inactive: [1] -0.067 | [2] -0.02 | [3] -0.028 | [4] -0.023 | Nexturastat A 0.182 | vemurafenib -0.042 | [5] 0.017 | [6] 0.053 | givinostat 0.06 | barasertib -0.021 | [7] 0.03 | volasertib -0.059 | [8] -0.015 | epoxomicin -0.047 | [9] -0.028 | [10] 0.116 | [11] -0.036 | rosiglitazone -0.048 | [12] 0.152 | [13] 0.223

VPS26A (UniProt O75436)
inactive: [1] 0.02 | [2] 0.019 | [3] 0.026 | [4] 0.053 | Nexturastat A 0.037 | vemurafenib 0.021 | [5] 0.059 | [6] -0.065 | givinostat 0.009 | barasertib -0.019 | [7] 0.019 | volasertib -0.087 | [8] 0.028 | epoxomicin 0.033 | [9] 0.01 | [10] -0.043 | [11] 0.035 | rosiglitazone 0.074 | [12] -0.073 | [13] -0.058

VEZF1 (UniProt Q14119)
inactive: [1] -0.002 | [2] 0.081 | [3] -0.172 | [4] -0.159 | Nexturastat A 0.055 | vemurafenib -0.116 | [5] -0.156 | [6] 0.053 | givinostat -0.055 | barasertib -0.083 | [7] 0.191 | volasertib 0.262 | [8] -0.025 | epoxomicin -0.138 | [9] 0.056 | [10] 0.067 | [11] -0.14 | rosiglitazone -0.077 | [12] 0.322 | [13] 0.137

WIPI2 (UniProt Q9Y4P8)
inactive: [1] 0.032 | [2] -0.029 | [3] 0.001 | [4] -0.008 | Nexturastat A -0.112 | vemurafenib -0.009 | [5] 0.013 | [6] -0.031 | givinostat 0.019 | barasertib 0.053 | [7] -0.089 | volasertib -0.191 | [8] 0.019 | epoxomicin 0.035 | [9] -0.112 | [10] -0.03 | [11] 0.015 | rosiglitazone 0.003 | [12] 0.012 | [13] -0.071

WASL (UniProt O00401)
inactive: [1] 0.011 | [2] -0.126 | [3] -0.01 | [4] 0.032 | Nexturastat A -0.065 | vemurafenib 0.044 | [5] 0.078 | [6] -0.034 | givinostat -0.085 | barasertib 0.034 | [7] -0.123 | volasertib -0.12 | [8] -0.027 | epoxomicin 0.024 | [9] 0.027 | [10] 0 | [11] 0.047 | rosiglitazone 0.092 | [12] -0.075 | [13] -0.072

WRNIP1 (UniProt Q96S55)
inactive: [1] -0.082 | [2] 0.032 | [3] -0.056 | [4] 0.052 | Nexturastat A -0.169 | vemurafenib 0.036 | [5] 0.009 | [6] 0.116 | givinostat 0.059 | barasertib 0.125 | [7] -0.123 | volasertib -0.327 | [8] 0.283 | epoxomicin 0.15 | [9] -0.093 | [10] -0.058 | [11] 0.096 | rosiglitazone 0.081 | [12] 0.035 | [13] -0.371

Copied from the listing (2 entries):
VPS26A (UniProt O75436)
inactive: [1] 0.02 | [2] 0.019 | [3] 0.026 | [4] 0.053 | Nexturastat A 0.037 | vemurafenib 0.021 | [5] 0.059 | [6] -0.065 | givinostat 0.009 | barasertib -0.019 | [7] 0.019 | volasertib -0.087 | [8] 0.028 | epoxomicin 0.033 | [9] 0.01 | [10] -0.043 | [11] 0.035 | rosiglitazone 0.074 | [12] -0.073 | [13] -0.058

VEZF1 (UniProt Q14119)
inactive: [1] -0.002 | [2] 0.081 | [3] -0.172 | [4] -0.159 | Nexturastat A 0.055 | vemurafenib -0.116 | [5] -0.156 | [6] 0.053 | givinostat -0.055 | barasertib -0.083 | [7] 0.191 | volasertib 0.262 | [8] -0.025 | epoxomicin -0.138 | [9] 0.056 | [10] 0.067 | [11] -0.14 | rosiglitazone -0.077 | [12] 0.322 | [13] 0.137

Remaining list, next part:

WIZ isoform 3 (UniProt O95785)
inactive: [1] 0.083 | [2] 0.014 | [3] -0.052 | [4] 0.027 | Nexturastat A 0.091 | vemurafenib 0.142 | [5] 0.059 | [6] 0.067 | givinostat 0.136 | barasertib -0.092 | [7] -0.006 | volasertib -0.032 | [8] -0.091 | epoxomicin -0.013 | [9] -0.019 | [10] -0.02 | [11] 0.024 | rosiglitazone 0.064 | [12] 0 | [13] -0.105

WDR26, A0A499FIZ0
inactive: [1] 0.017 | [2] -0.017 | [3] -0.042 | [4] -0.02 | Nexturastat A -0.063 | vemurafenib -0.032 | [5] -0.031 | [6] -0.07 | givinostat -0.036 | barasertib 0.026 | [7] -0.028 | volasertib -0.075 | [8] 0.022 | epoxomicin -0.021 | [9] 0.028 | [10] 0.014 | [11] -0.023 | rosiglitazone -0.025 | [12] 0.028 | [13] 0.006

WDR13 (UniProt Q9H1Z4)
inactive: [1] -0.042 | [2] -0.013 | [3] 0.018 | [4] 0.014 | Nexturastat A -0.003 | vemurafenib -0.008 | [5] 0.016 | [6] -0.051 | givinostat -0.054 | barasertib -0.043 | [7] 0.051 | volasertib -0.013 | [8] -0.028 | epoxomicin 0.009 | [9] 0.005 | [10] -0.06 | [11] -0.021 | rosiglitazone 0.041 | [12] -0.021 | [13] -0.021

WARS (UniProt P23381)
inactive: [1] -0.021 | [2] -0.008 | [3] -0.002 | [4] 0.008 | Nexturastat A -0.028 | vemurafenib 0.004 | [5] -0.014 | [6] 0.024 | givinostat -0.06 | barasertib -0.007 | [7] -0.019 | volasertib 0.073 | [8] -0.016 | epoxomicin 0.019 | [9] 0.012 | [10] -0.015 | [11] -0.015 | rosiglitazone -0.02 | [12] -0.055 | [13] -0.011

WDR1 (UniProt O75083)
inactive: [1] 0.042 | [2] -0.017 | [3] -0.012 | [4] 0.044 | Nexturastat A -0.022 | vemurafenib 0.009 | [5] 0.01 | [6] -0.02 | givinostat -0.068 | barasertib 0.003 | [7] 0.004 | volasertib 0.014 | [8] 0.05 | epoxomicin 0.027 | [9] -0.023 | [10] -0.098 | [11] 0.015 | rosiglitazone 0.038 | [12] -0.091 | [13] -0.034
